From PMC9883520
Changes are numbered by the printed parent chain. For some of these results: A weaker result is weaker than the reference pair of the same experiment. Protein sequences can lack the tags named with them. For some of these results: Construct, isoform or probe ends are uncertain for at least one entry. For some of these results: At least one verdict rests on a figure or table, not on a statement of the authors.

Columns and labels:
BRCA2 NTD (human) = target: T1, BRCA2 NTD (human) (UniProt P51587); assay: EMSA; conditions: EMSA: 25 mM Tris acetate pH 7.5, 1 mM DTT, 1 mM MgCl2, 2 mM CaCl2, 1 h at 37 C, 6% native PAGE in 1x TAE, recombinant protein, residues 250-500, protein details: 2xMBP
T1 sequence (looked up): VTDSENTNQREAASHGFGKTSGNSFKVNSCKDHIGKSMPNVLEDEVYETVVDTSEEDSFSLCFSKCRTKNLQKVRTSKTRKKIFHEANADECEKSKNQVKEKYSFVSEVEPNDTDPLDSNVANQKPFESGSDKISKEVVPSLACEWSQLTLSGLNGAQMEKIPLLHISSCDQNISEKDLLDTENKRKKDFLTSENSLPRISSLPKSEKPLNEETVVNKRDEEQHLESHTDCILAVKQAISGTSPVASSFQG

BRCA2 NTD-S273L (human) = target: T2, BRCA2 NTD-S273L (human) (UniProt P51587); assay: EMSA; conditions: EMSA: 25 mM Tris acetate pH 7.5, 1 mM DTT, 1 mM MgCl2, 2 mM CaCl2, 1 h at 37 C, 6% native PAGE in 1x TAE, recombinant protein, residues 250-500, protein details: 2xMBP
T2 sequence (looked up): T1 sequence (looked up) with S24L

[1] = 5 nM DNA, label: 5'-32P on oAC405
[2] = 6 nM DNA, label: 5'-32P, single-stranded DNA

| Sequence | binding result (BRCA2 NTD (human); [1]) | binding result (BRCA2 NTD-S273L (human); [1]) | binding result (BRCA2 NTD (human); [2]) | binding result (BRCA2 NTD-S273L (human); [2]) |
| --- | --- | --- | --- | --- |
| TAATACAAAATAAGTAAATGAATAAACAGAGAAAATAAAG (double strand) [dsDNA 42mer (oAC405/oAC406)] | binds | binds more weakly |  |  |
| TTTTTTTTTTTTTTTTTTTTTTTTTTTTTTTTTTTTTTTT [dT40 (oAC379)] |  |  | binds | binds more weakly |
